Laboratory results: PMC6955937
Results are given in words; binding and its absence hold for the method and conditions named. Some entries that bind do so weakly or less than the wild type. Where a sequence is shown, tags or fusion partners need not be part of it.

By UniProt entry, the sequences of proteins in these tests, tags left out. Where a name states a change or a piece, a line headed by the entry shows the natural chain unless it says otherwise.
UniProt P02671: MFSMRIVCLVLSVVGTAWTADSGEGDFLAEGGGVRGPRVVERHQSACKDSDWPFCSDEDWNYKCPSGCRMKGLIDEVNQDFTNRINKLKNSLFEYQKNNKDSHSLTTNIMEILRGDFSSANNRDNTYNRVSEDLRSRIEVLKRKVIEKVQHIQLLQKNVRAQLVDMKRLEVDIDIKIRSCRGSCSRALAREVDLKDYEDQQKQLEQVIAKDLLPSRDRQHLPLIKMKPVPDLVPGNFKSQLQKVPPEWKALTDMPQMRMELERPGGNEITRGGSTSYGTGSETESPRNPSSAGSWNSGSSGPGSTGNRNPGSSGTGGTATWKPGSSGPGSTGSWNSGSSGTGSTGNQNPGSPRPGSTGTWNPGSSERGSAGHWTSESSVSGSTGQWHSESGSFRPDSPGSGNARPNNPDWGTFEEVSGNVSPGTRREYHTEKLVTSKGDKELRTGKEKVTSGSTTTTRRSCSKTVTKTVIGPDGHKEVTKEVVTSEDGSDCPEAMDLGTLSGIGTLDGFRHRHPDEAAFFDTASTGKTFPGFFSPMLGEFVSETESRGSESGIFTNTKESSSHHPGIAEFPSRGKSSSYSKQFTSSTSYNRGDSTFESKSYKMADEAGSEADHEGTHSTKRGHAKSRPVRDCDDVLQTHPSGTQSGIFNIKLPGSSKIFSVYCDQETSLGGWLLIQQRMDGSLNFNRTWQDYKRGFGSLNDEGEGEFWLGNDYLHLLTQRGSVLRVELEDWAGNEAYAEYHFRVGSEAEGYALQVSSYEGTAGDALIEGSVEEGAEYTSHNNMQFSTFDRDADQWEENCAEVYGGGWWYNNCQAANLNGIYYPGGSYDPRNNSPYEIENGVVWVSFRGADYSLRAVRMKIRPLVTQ
UniProt P02675: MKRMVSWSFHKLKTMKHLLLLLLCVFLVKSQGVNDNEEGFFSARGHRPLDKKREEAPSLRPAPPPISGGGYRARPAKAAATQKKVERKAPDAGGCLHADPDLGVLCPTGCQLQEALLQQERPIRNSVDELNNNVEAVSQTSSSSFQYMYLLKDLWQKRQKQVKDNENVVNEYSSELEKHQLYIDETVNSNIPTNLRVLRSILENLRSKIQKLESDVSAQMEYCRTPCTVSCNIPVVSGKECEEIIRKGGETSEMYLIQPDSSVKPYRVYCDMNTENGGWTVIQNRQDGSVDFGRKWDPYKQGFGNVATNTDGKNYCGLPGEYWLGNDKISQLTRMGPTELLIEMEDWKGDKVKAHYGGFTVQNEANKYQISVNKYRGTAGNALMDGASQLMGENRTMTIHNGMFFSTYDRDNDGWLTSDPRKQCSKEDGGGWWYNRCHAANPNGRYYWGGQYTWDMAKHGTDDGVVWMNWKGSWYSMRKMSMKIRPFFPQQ
UniProt P02679: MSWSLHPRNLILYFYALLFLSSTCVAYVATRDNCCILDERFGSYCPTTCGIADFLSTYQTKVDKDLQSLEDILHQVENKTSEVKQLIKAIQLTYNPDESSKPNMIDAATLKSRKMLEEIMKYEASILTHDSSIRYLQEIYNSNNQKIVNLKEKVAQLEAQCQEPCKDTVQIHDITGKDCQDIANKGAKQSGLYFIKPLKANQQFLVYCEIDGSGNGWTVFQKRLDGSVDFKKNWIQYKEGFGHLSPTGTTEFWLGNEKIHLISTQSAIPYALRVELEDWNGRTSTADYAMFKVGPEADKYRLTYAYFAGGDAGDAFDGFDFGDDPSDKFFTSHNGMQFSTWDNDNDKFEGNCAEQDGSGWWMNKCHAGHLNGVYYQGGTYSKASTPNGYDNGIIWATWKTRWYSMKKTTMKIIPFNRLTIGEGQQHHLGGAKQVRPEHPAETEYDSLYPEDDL

Molecular target: fibrin (insoluble, formed in the wells from coated fibrinogen by thrombin) (human) (UniProt P02671+P02675+P02679)
Assay: ELISA; fibrin formed in Maxisorp wells from coated fibrinogen (10 µg/mL) by thrombin, fibrinogen coated as control; blocked with 1% BSA in PBST; in vivo biotinylated purified binders applied, detected by streptavidin-HRP; both purified

| binding | Binder |
| --- | --- |
| binds | LAEAKVLANRELDKYGVSDGYKNWINPADGVAGVKSAIDAILAALP (designed binder, biotin (in vivo biotinylated)) [F11 (TolA-Avi fusion)] |
| binds | LAEAKVLANRELDKYGVSDFYKNLINVAMPVVLVKTAIDGILAALP (designed binder, biotin on the C-terminal Avitag (in vivo biotinylated)) [E7-TolA-Avi] |
